Single values of this set are uncertain.

In this series the test system is Sindbis virus TE/5'2J-GFP. The series can be described thus: percent infected (GFP+ in RFP+ ISG-expressing cells); higher = more infection (less antiviral activity). Particulars: experiment: primary screen (single well).

“MSRSYNDELQFLEKINKNCWRIKKGFVPNMQVEGVFYVNDALEKLMFEELRNACRGGGVGGFLPAMKQIGNVAALPGIVHRSIGLPDVHSGYGFAIGNMAAFDMNDPEAVVSPGGVGFDINCGVRLLRTNLDESDVQPVKEQLAQAMFDHIPVGVGSKGVIPMNAKDLEEALEMGVDWSLREGYAWAEDKEHCEEYGRMLQADPNKVSARAKKRGLPQLGTLGAGNHYAEIQVVDEIFNEYAAKKMGIDHKGQVCVMIHSGSRGLGHQVATDALVAMEKAMKRDKIIVNDRQLACARIASPEGQDYLKGMAAAGNYAWVNRSSMTFLTRQAFAKVFNTTPDDLDLHVIYDVSHNIAKVEQHVVDGKERTLLVHRKGSTRAFPPHHPLIAVDYQLTGQPVLIGGTMGTCSYVLTGTEQGMTETFGTTCHGAGRALSRAKSRRNLDFQDVLDKLADMGIAIRVASPKLVMEEAPESYKNVTDVVNTCHDAGISKKAIKLRPIAVIKG [C22orf28]” displayed a percent infected (BHK/HA-Zeo (control)) of 98.2%.

On to “MKLRSSHNASKTLNANNMETLIECQSEGDIKEHPLLASCESEDSICQLIEVKKRKKVLSWPFLMRRLSPASDFSGALETDLKASLFDQPLSIICGDSDTLPRPIQDILTILCLKGPSTEGIFRRAANEKARKELKEELNSGDAVDLERLPVHLLAVVFKDFLRSIPRKLLSSDLFEEWMGALEMQDEEDRIEALKQVADKLPRPNLLLLKHLVYVLHLISKNSEVNRMDSSNLAICIGPNMLTLENDQSLSFEAQKDLNNKVKTLVEFLIDNCFEIFGENIPVHSSITSDDSLEHTDSSDVSTLQNDSAYDSNDPDVESNSSSGISSPSRQPQVPMATAAGLDSAGPQDAREVSPEPIVSTVARLKSSLAQPDRRYSEPSMPSSQECLESRVTNQTLTKSEGDFPVPRVGSRLESEEAEDPFPEEVFPAVQGKTKRPVDLKIKNLAPGSVLPRALVLKAFSSSSLDASSDSSPVASPSSPKRNFFSRHQSFTTKTEKGKPSREIKKHSMSFTFAPHKKVLTKNLSAGSGKSQDFTRDHVPRGVRKESQLAGRIVQENGCETHNQTARGFCLRPHALSVDDVFQGADWERPGSPPSYEEAMQGPAARLVASESQTVGSMTVGSMRARMLEAHCLLPPLPPAHHVEDSRHRGSKEPLPGHGLSPLPERWKQSRTVHASGDSLGHVSGPGRPELLPLRTVSESVQRNKRDCLVRRCSQPVFEADQFQYAKESYI [TAGAP]”, for which the percent infected worked out at 95.1% (BHK/HA-Zeo (control)) and 81.6% (BHK/NZAP-Zeo (ZAP)). In the case of “MRTSYLLLFTLCLLLSEMASGGNFLTGLGHRSDHYNCVSSGGQCLYSACPIFTKIQGTCYRGKAKCCK [DEFB1]”, the percent infected is, setting by setting: (BHK/HA-Zeo (control)) 90.1%; (BHK/NZAP-Zeo (ZAP)) 75%. With “MGHTRRQGTSPSKCPYLNFFQLLVLAGLSHFCSGVIHVTKEVKEVATLSCGHNVSVEELAQTRIYWQKEKKMVLTMMSGDMNIWPEYKNRTIFDITNNLSIVILALRPSDEGTYECVVLKYEKDAFKREHLAEVTLSVKADFPTPSISDFEIPTSNIRRIICSTSGGFPEPHLSWLENGEELNAINTTVSQDPETELYAVSSKLDFNMTTNHSFMCLIKYGHLRVNQTFNWNTTKQEHFPDNLLPSWAITLISVNGIFVICCLTYCFAPRCRERRRNERLRRESVRPV [CD80]”, the percent infected is, setting by setting: (BHK/HA-Zeo (control)) 97.2%; (BHK/NZAP-Zeo (ZAP)) 95.5%.

For KIAA1618, the percent infected reads like this: (BHK/HA-Zeo (control)) 97.5%; (BHK/NZAP-Zeo (ZAP)) 91.2%. Turning to “MSPSLQEGAQLGENKPSTCSFSIERILGLDQKKDCVPLMKPHRPWADTCSSSGKDGNLCLHVPNPPSGISFPSVVDHPMPEERASKYENYFSASERLSLKRELSWYRGRRPRTAFTQNQIEVLENVFRVNCYPGIDIREDLAQKLNLEEDRIQIWFQNRRAKLKRSHRESQFLMAKKNFNTNLLE [HESX1]”, the percent infected stood at 95.9% (BHK/HA-Zeo (control)) and 94.6% (BHK/NZAP-Zeo (ZAP)). In the case of ARNTL, the percent infected runs as follows: (BHK/HA-Zeo (control)) 96.8%; (BHK/NZAP-Zeo (ZAP)) 86.5%. Taken in the same sequence, the figures for “MESKYKEILLLTGLDNITDEELDRFKFFLSDEFNIATGKLHTANRIQVATLMIQNAGAVSAVMKTIRIFQKLNYMLLAKRLQEEKEKVDKQYKSVTKPKPLSQAEMSPAASAAIRNDVAKQRAAPKVSPHVKPEQKQMVAQQESIREGFQKRCLPVMVLKAKKPFTFETQEGKQEMFHATVATEKEFFFVKVFNTLLKDKFIPKRIIIIARYYRHSGFLEVNSASRVLDAESDQKVNVPLNIIRKAGETPKINTLQTQPLGTIVNGLFVVQKVTEKKKNILFDLSDNTGKMEVLGVRNEDTMKCKEGDKVRLTFFTLSKNGEKLQLTSGVHSTIKVIKAKKKT [AIM2]” were 97.3% and 85.1%. In turn, “MAENGKNCDQRRVAMNKEHHNGNFTDPSSVNEKKRREREERQNIVLWRQPLITLQYFSLEILVILKEWTSKLWHRQSIVVSFLLLLAVLIATYYVEGVHQQYVQRIEKQFLLYAYWIGLGILSSVGLGTGLHTFLLYLGPHIASVTLAAYECNSVNFPEPPYPDQIICPDEEGTEGTISLWSIISKVRIEACMWGIGTAIGELPPYFMARAARLSGAEPDDEEYQEFEEMLEHAESAQDFASRAKLAVQKLVQKVGFFGILACASIPNPLFDLAGITCGHFLVPFWTFFGATLIGKAIIKMHIQKIFVIITFSKHIVEQMVAFIGAVPGIGPSLQKPFQEYLEAQRQKLHHKSEMGTPQGENWLSWMFEKLVVVMVCYFILSIINSMAQSYAKRIQQRLNSEEKTK [TMEM49]” showed a percent infected (BHK/HA-Zeo (control)) of 97.6% and a percent infected (BHK/NZAP-Zeo (ZAP)) of 93.5%. Taken in the same sequence, the figures for “MDENNGLLLLELNPPNPWDLQPRSPEELAFGEVQITYLTHACMDLKLGDKRMVFDPWLIGPAFARGWWLLHEPPSDWLERLCQADLIYISHLHSDHLSYPTLKKLAGRRPDIPIYVGNTERPVFWNLNQSGVQLTNINVVPFGIWQQVDKNLRFMILMDGVHPEMDTCIIVEYKGHKILNIVDCTRPNGGRLPMKVALMMSDFAGGASGFPMTFSGGKFTEEWKAQFIKTERKKLLNYKARLVKNLQPRIYCPFAGYFVESHPSDKYIKETNTKNDPNELNNLIKKNSDVITWTPRPGATLDLGRMLKDRTDSKGIIEPPEGTKIYKDSWDFEPYLEILNAALGDEIFLHSSWIKEYFTWAGFKDYNLVVRMIETDEDFNPFPGGYDYLVDFLDLSFPKERPQREHPYEEIHSRVDVIRHVVKNGLLWDELYIGFQTRLQRDPDIYHHLFWNHFQIKLPLTPPNWKSFLMCCEQNGPVILQFSTERTNEPNRNKFSVENKA [CMAH]” were 90.1% and 79.2%.

Regarding “MAEAHQAVAFQFTVTPDGIDLRLSHEALRQIYLSGLHSWKKKFIRFKNGIITGVYPASPSSWLIVVVGVMTTMYAKIDPSLGIIAKINRTLETANCMSSQTKNVVSGVLFGTGLWVALIVTMRYSLKVLLSYHGWMFTEHGKMSRATKIWMGMVKIFSGRKPMLYSFQTSLPRLPVPAVKDTVNRYLQSVRPLMKEEDFKRMTALAQDFAVGLGPRLQWYLKLKSWWATNYVSDWWEEYIYLRGRGPLMVNSNYYAMDLLYILPTHIQAARAGNAIHAILLYRRKLDREEIKPIRLLGSTIPLCSAQWERMFNTSRIPGEETDTIQHMRDSKHIVVYHRGRYFKVWLYHDGRLLKPREMEQQMQRILDNTSEPQPGEARLAALTAGDRVPWARCRQAYFGRGKNKQSLDAVEKAAFFVTLDETEEGYRSEDPDTSMDSYAKSLLHGRCYDRWFDKSFTFVVFKNGKMGLNAEHSWADAPIVAHLWEYVMSIDSLQLGYAEDGHCKGDINPNIPYPTRLQWDIPGECQEVIETSLNTANLLANDVDFHSFPFVAFGKGIIKKCRTSPDAFVQLALQLAHYKDMGKFCLTYEASMTRLFREGRTETVRSCTTESCDFVRAMVDPAQTVEQRLKLFKLASEKHQHMYRLAMTGSGIDRHLFCLYVVSKYLAVESPFLKEVLSEPWRLSTSQTPQQQVELFDLENNPEYVSSGGGFGPVADDGYGVSYILVGENLINFHISSKFSCPETDSHRFGRHLKEAMTDIITLFGLSSNSKK [CPT1A]”, the percent infected came to 89.9% (BHK/HA-Zeo (control)) and 97.4% (BHK/NZAP-Zeo (ZAP)). Substance “MPGKKARKNAQPSPARAPAELEVECATQLRRFGDKLNFRQKLLNLISKLFCSGT [PMAIP1]” showed a percent infected (BHK/HA-Zeo (control)) of 89.5% and a percent infected (BHK/NZAP-Zeo (ZAP)) of 76.2%. For the substance “MMAQSKANGSHYALTAIGLGMLVLGVIMAMWNLVPGFSAAEKPTAQGSNKTEVGGGILKSKTFSVAYVLVGAGVMLLLLSICLSIRDKRKQRQGEDLAHVQHPTGAGPHAQEEDSQEEEEEDEEAASRYYVPSYEEVMNTNYSEARGEEQNPRLSISLPSYESLTGLDETTPTSTRADVEASPGNPPDRQNSKLAKRLKPLKVRRIKSEKLHLKDFRINLPDKNVPPPSIEPLTPPPQYDEVQEKAPDTRPPD [TMEM51]”, the percent infected by setting is: (BHK/HA-Zeo (control)) 92.4%; (BHK/NZAP-Zeo (ZAP)) 84.4%. As to “MSALNWKPFVYGGLASITAECGTFPIDLTKTRLQIQGQTNDAKFKEIRYRGMLHALVRIGREEGLKALYSGIAPAMLRQASYGTIKIGTYQSLKRLFIERPEDETLPINVICGILSGVISSTIANPTDVLKIRMQAQSNTIQGGMIGNFMNIYQQEGTRGLWKGVSLTAQRAAIVVGVELPVYDITKKHLILSGLMGDTVYTHFLSSFTCGLAGALASNPVDVVRTRMMNQRVLRDGRCSGYTGTLDCLLQTWKNEGFFALYKGFWPNWLRLGPWNIIFFVTYEQLKKLDL [SLC25A30]”, the percent infected runs as follows: (BHK/HA-Zeo (control)) 98.7%; (BHK/NZAP-Zeo (ZAP)) 98.5%. In the same order, the values of “MGLGRVLLFLAVAFPFAPPAAAAEPHSLRYNLMVLSQDGSVQSGFLAEGHLDGQPFLRYDRQKRRAKPQGQWAENVLGAKTWDTETEDLTENGQDLRRTLTHIKDQKGGLHSLQEIRVCEIHEDSSTRGSRHFYYDGELFLSQNLETQESTVPQSSRAQTLAMNVTNFWKEDAMKTKTHYRAMQADCLQKLQRYLKSGVAIRRTVPPMVNVTCSEVSEGNITVTCRASSFYPRNITLTWRQDGVSLSHNTQQWGDVLPDGNGTYQTWVATRIRQGEEQRFTCYMEHSGNHGTHPVPSGKALVLQSQRTDFPYVSAAMPCFVIIIILCVPCCKKKTSAAEGPELVSLQVLDQHPVGTGDHRDAAQLGFQPLMSATGSTGSTEGT [MICB]” are 98.7% and 93.9%.

Take “MEGAELAGKILSTWLTLVLGFILLPSVFGVSLGISEIYMKILVKTLEWATIRIEKGTPKESILKNSASVGIIQRDESPMEKGLSGLRGRDFELSDVFYFSKKGLEAIVEDEVTQRFSSEELVSWNLLTRTNVNFQYISLRLTMVWVLGVIVRYCVLLPLRVTLAFIGISLLVIGTTLVGQLPDSSLKNWLSELVHLTCCRICVRALSGTIHYHNKQYRPQKGGICVANHTSPIDVLILTTDGCYAMVGQVHGGLMGIIQRAMVKACPHVWFERSEMKDRHLVTKRLKEHIADKKKLPILIFPEGTCINNTSVMMFKKGSFEIGGTIHPVAIKYNPQFGDAFWNSSKYNMVSYLLRMMTSWAIVCDVWYMPPMTREEGEDAVQFANRVKSAIAIQGGLTELPWDGGLKRAKVKDIFKEEQQKNYSKMIVGNGSLS [AGPAT9]”: the percent infected runs as follows: (BHK/HA-Zeo (control)) 98.1%; (BHK/NZAP-Zeo (ZAP)) 96.1%.

Turning to “MADDQGCIEEQGVEDSANEDSVDAKPDRSSFVPSLFSKKKKNVTMRSIKTTRDRVPTYQYNMNFEKLGKCIIINNKNFDKVTGMGVRNGTDKDAEALFKCFRSLGFDVIVYNDCSCAKMQDLLKKASEEDHTNAACFACILLSHGEENVIYGKDGVTPIKDLTAHFRGDRCKTLLEKPKLFFIQACRGTELDDGIQADSGPINDTDANPRYKIPVEADFLFAYSTVPGYYSWRSPGRGSWFVQALCSILEEHGKDLEIMQILTRVNDRVARHFESQSDDPHFHEKKQIPCVVSMLTKELYFSQ [CASP7]”, the percent infected runs as follows: (BHK/HA-Zeo (control)) 98.3%; (BHK/NZAP-Zeo (ZAP)) 97.3%.

The values above are taken from the supplement of paper PMC3353916.
